Measurements published in article doi:10.1101/2025.01.09.632101.
Results are given in words; binding and its absence hold for the method and conditions named. Some binding calls cover weakened binding; strength is not graded here. Tags and fused reporters may be left off the sequences shown.

Target: T1, porcine DPEP1 (residues 17-385) from Drosophila S2 cells, tag removed, deglycosylated (crystallization) (porcine (Sus scrofa)), P22412
T1 chain: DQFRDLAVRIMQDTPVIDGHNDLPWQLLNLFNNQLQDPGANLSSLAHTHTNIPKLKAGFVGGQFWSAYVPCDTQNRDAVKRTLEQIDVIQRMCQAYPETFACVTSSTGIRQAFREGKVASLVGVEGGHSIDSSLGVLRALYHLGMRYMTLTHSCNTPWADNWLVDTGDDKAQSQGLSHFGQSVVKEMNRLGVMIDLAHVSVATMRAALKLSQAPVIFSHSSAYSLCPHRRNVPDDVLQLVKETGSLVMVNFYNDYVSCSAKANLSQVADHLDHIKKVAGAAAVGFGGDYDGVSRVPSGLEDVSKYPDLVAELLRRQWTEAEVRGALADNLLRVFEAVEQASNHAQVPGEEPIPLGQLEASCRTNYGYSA
Test: crystal structure
Details: remark: other sources report otherwise

B1: porcine DPEP1 (residues 17-385) from Drosophila S2 cells, tag removed, deglycosylated (crystallization), P22412 17-385 (receptor)
chain: DQFRDLAVRIMQDTPVIDGHNDLPWQLLNLFNNQLQDPGANLSSLAHTHTNIPKLKAGFVGGQFWSAYVPCDTQNRDAVKRTLEQIDVIQRMCQAYPETFACVTSSTGIRQAFREGKVASLVGVEGGHSIDSSLGVLRALYHLGMRYMTLTHSCNTPWADNWLVDTGDDKAQSQGLSHFGQSVVKEMNRLGVMIDLAHVSVATMRAALKLSQAPVIFSHSSAYSLCPHRRNVPDDVLQLVKETGSLVMVNFYNDYVSCSAKANLSQVADHLDHIKKVAGAAAVGFGGDYDGVSRVPSGLEDVSKYPDLVAELLRRQWTEAEVRGALADNLLRVFEAVEQASNHAQVPGEEPIPLGQLEASCRTNYGYSA
binding: binds
